Assay: physchem
Conditions: octanol/water, pH 7.4

For `CC(C)(C)OC(=O)N1CCN(c2ncc(OCc3ccc(S(C)(=O)=O)cc3)cn2)C(C)(C)C1`, the logD was > 3.6.
